This is one part of the list. This is a noisy data set.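 Tm was set to 64 °C where no melting was found, and many curves are irregular.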
Compound: CCc1cnccc1C(=O)Nc1cc2c(cc1F)NC(=O)CC2
Assay: melting temperature shift (DMSO Tm minus MBE1-treated Tm) in cellular thermal proteome profiling; higher = less thermal stabilization by MBE1 (negative = stabilized by MBE1)
Conditions: A375

Chains of the proteins cited; added tags and fusions are not shown. Lines headed by an entry give the natural chain unless they say otherwise; changes in a name come on top.
UniProt O75400: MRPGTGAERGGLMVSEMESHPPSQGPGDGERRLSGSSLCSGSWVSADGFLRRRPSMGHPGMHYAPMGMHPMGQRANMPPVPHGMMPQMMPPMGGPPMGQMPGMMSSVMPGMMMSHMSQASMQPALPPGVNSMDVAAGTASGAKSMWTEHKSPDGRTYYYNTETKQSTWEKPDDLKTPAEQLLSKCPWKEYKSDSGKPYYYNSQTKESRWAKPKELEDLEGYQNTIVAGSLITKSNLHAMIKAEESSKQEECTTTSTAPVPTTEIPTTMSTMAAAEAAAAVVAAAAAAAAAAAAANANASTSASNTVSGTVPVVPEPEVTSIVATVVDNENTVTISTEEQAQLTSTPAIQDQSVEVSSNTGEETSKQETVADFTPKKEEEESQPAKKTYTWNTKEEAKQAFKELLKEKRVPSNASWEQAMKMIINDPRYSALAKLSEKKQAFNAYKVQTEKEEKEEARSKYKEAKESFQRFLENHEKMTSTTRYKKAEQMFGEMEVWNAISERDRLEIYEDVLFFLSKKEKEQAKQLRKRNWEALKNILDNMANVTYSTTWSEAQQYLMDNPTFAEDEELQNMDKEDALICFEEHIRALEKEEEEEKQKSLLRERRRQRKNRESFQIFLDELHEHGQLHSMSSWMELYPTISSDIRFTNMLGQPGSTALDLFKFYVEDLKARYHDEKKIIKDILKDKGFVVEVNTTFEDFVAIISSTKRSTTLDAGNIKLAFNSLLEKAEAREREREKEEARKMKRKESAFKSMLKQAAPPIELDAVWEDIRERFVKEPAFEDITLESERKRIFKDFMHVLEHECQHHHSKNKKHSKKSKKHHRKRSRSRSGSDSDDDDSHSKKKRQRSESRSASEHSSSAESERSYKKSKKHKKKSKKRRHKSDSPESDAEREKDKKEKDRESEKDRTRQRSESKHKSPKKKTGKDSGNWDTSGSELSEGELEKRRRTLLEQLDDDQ
UniProt O43488: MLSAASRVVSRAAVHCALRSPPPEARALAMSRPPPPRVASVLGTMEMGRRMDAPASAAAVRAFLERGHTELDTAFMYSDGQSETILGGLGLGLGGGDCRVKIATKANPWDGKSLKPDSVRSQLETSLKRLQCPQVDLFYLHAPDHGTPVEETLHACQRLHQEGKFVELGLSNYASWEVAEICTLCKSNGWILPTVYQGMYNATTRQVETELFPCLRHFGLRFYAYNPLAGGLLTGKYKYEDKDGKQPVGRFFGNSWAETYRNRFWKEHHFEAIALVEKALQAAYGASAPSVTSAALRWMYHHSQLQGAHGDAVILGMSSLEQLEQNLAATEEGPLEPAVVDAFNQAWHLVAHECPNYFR
UniProt O43379: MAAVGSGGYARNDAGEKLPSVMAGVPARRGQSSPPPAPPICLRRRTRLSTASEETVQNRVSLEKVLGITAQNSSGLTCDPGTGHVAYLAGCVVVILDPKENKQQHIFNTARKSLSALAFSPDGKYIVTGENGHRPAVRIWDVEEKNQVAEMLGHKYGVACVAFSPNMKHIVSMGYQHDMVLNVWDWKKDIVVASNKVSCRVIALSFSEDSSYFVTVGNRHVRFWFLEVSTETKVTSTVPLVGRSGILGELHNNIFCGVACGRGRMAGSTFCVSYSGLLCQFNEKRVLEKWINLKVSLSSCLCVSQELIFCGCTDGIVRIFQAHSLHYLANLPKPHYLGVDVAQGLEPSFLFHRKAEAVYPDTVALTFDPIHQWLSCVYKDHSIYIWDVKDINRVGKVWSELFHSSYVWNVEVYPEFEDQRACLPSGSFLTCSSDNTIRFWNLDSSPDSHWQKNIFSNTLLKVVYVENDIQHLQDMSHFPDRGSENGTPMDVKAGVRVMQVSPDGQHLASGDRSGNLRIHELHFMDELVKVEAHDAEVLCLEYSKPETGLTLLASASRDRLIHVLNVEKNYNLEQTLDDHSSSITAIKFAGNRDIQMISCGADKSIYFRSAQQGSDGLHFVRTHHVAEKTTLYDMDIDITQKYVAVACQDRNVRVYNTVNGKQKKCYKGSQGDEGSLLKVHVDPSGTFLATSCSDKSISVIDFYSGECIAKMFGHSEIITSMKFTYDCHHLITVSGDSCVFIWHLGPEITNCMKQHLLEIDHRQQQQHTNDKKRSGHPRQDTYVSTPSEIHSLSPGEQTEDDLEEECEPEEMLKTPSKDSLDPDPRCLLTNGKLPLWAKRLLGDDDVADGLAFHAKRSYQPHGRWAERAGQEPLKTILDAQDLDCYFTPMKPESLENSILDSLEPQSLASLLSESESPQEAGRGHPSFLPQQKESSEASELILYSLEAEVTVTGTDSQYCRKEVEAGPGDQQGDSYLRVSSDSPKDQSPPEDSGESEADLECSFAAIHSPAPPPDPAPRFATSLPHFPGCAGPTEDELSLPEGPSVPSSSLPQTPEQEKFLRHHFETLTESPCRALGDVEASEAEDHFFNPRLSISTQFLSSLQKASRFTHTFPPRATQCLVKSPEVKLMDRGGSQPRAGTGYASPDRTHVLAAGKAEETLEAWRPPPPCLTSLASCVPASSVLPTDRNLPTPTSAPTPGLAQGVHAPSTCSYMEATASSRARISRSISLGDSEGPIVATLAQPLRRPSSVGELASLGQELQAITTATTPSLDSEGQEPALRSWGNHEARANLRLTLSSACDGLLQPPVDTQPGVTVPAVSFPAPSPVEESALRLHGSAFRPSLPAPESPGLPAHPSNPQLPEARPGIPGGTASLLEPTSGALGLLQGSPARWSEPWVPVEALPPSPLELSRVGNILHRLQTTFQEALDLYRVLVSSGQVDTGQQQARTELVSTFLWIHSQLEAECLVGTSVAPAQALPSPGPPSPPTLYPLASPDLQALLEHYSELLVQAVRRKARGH
UniProt O43768: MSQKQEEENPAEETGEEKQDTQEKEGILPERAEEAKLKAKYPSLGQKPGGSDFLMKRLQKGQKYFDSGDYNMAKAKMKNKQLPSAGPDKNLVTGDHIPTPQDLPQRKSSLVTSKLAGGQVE
UniProt O60318: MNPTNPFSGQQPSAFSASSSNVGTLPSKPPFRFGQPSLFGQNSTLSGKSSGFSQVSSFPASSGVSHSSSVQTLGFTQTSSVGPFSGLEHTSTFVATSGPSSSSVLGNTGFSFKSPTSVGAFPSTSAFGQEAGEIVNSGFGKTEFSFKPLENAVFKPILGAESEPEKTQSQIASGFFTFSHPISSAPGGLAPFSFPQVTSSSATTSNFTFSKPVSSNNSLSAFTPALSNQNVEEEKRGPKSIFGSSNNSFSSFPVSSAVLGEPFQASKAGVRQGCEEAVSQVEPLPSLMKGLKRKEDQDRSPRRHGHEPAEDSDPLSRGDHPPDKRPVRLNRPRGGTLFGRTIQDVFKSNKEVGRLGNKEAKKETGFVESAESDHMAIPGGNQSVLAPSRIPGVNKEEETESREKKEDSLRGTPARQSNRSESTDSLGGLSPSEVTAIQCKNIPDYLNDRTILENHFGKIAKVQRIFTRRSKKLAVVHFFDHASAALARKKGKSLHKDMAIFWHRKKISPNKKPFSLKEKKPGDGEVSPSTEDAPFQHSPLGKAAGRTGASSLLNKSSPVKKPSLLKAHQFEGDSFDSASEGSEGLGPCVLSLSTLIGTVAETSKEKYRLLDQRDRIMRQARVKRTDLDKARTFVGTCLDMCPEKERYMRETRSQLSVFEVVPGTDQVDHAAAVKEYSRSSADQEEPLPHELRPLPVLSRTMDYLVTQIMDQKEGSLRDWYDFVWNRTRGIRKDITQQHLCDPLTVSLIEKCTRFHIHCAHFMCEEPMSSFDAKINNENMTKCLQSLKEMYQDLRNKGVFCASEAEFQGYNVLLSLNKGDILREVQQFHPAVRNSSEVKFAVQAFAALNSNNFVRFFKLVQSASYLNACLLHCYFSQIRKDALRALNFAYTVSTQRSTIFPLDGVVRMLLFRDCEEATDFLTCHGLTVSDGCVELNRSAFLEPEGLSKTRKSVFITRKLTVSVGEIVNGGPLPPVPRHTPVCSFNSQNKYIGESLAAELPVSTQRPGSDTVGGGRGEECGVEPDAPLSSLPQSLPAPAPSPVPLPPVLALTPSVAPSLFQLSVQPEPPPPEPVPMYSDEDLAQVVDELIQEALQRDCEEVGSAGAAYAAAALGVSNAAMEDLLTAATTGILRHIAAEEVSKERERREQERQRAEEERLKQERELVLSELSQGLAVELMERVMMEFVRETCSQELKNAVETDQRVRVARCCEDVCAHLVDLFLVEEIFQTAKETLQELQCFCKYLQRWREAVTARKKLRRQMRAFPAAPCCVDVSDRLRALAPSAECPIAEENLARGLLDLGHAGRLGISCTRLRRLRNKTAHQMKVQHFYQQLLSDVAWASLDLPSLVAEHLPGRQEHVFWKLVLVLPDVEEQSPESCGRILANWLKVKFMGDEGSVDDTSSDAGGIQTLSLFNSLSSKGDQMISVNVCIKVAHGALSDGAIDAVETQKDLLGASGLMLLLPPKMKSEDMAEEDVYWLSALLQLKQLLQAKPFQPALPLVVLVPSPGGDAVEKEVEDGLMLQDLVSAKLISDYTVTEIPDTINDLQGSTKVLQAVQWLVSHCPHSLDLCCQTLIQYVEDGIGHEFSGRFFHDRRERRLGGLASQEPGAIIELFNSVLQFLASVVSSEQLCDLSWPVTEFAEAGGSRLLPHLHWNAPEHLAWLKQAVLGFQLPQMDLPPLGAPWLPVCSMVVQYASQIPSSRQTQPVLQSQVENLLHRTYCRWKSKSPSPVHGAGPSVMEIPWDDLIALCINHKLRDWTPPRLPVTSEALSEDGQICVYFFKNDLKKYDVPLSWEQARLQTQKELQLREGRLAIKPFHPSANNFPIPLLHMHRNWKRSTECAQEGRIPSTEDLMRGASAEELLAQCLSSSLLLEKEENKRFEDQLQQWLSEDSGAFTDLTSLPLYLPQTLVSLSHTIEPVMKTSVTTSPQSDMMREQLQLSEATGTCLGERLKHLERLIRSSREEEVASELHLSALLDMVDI
UniProt O43837: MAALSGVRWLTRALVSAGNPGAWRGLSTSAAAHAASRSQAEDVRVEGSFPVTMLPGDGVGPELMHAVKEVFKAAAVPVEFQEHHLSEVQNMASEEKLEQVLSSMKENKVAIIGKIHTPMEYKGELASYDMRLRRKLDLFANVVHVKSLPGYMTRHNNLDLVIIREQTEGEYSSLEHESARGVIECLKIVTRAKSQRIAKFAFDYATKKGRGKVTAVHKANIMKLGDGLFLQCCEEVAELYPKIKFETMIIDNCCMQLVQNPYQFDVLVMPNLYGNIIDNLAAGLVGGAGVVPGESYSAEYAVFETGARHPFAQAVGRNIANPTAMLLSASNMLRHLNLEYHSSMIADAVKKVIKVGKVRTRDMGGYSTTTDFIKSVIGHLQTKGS
UniProt O43395: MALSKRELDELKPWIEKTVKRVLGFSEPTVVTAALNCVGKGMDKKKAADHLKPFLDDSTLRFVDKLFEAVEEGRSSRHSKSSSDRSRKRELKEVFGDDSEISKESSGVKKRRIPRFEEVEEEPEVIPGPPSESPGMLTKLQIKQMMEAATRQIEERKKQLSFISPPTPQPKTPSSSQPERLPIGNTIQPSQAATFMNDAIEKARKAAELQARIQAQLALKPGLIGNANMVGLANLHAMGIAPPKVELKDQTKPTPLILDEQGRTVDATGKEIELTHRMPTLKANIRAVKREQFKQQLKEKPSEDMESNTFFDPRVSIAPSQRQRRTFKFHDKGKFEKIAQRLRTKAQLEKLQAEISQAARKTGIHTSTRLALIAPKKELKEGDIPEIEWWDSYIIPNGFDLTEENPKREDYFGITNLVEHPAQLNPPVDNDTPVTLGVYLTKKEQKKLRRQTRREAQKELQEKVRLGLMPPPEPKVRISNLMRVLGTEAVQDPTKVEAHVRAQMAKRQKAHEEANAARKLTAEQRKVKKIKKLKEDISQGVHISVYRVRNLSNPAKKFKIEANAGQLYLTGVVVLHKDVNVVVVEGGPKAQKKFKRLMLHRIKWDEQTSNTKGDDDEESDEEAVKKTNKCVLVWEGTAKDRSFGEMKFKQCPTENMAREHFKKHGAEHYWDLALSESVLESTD

| Target | melting temperature shift (MBE1 concentration: 100 nM) | melting temperature shift (MBE1 concentration: 1 uM) |
| --- | --- | --- |
| NPM3 (UniProt O75607) | -3.05 °C | -0.6 °C |
| KLF4 (UniProt O43474) | -1.97 °C | – |
| TADA3 (UniProt O75528) | -3.43 °C | -4.96 °C |
| DNAJB6 (UniProt O75190) | -1.57 °C | -1.22 °C |
| PRPF40A (UniProt O75400) | -0.955 °C | -0.223 °C |
| UniProt O75575 | -0.659 °C | 0.177 °C |
| GTPBP6 (UniProt O43824) | -0.953 °C | 0.916 °C |
| UniProt O60613 | -1.43 °C | 0.47 °C |
| SCO1 (UniProt O75880) | – | 8.34 °C |
| AKR7A2 (UniProt O43488) | -0.0537 °C | 0.0604 °C |
| WDR62 (UniProt O43379) | -0.0423 °C | -0.686 °C |
| CALU (UniProt O43852) | – | -3.65 °C |
| NME6 (UniProt O75414) | -1.7 °C | -1.29 °C |
| ENSA (UniProt O43768) | – | -7.38 °C |
| SORBS3 (UniProt O60504) | 0.714 °C | 0.605 °C |
| ZNF217 (UniProt O75362) | 0.33 °C | 0.782 °C |
| ZFC3H1 (UniProt O60293) | -0.801 °C | 0.0513 °C |
| ERLIN1 (UniProt O75477) | -0.22 °C | 0.464 °C |
| ATP9A (UniProt O75110) | -1.14 °C | -2.3 °C |
| WBP4 (UniProt O75554) | – | 17.2 °C |
| MAST3 (UniProt O60307) | 0.262 °C | -0.496 °C |

| Target | melting temperature shift (MBE1 concentration: 100 nM) | melting temperature shift (MBE1 concentration: 1 uM) |
| --- | --- | --- |
| UniProt O60347 | – | -1.43 °C |
| RNF40 (UniProt O75150) | -0.186 °C | -0.218 °C |
| OBSL1 (UniProt O75147) | -0.794 °C | -0.442 °C |
| UniProt O60318 | -0.455 °C | -0.25 °C |
| UniProt O60861 | 0.0833 °C | 0.0577 °C |
| UniProt O43741 | -1.18 °C | -1.09 °C |
| UniProt O60220 | -1.25 °C | -3.62 °C |
| AKAP10 (UniProt O43572) | -0.236 °C | -0.6 °C |
| TBC1D4 (UniProt O60343) | 1.17 °C | 0.525 °C |
| UniProt O60282 | -0.507 °C | -1.28 °C |
| UniProt O60637 | – | -3.02 °C |
| UniProt O43791 | – | 1.13 °C |
| CNOT3 (UniProt O75175) | 1.35 °C | 0.379 °C |
| WBSCR22 (UniProt O43709) | -0.671 °C | 0.86 °C |
| ORC4 (UniProt O43929) | -0.621 °C | -0.36 °C |
| SCO2 (UniProt O43819) | -0.0855 °C | 5 °C |
| USO1 (UniProt O60763) | 0.678 °C | 0.397 °C |
| PPP1R11 (UniProt O60927) | 0 °C | -2.65 °C |
| RIPK2 (UniProt O43353) | -1.61 °C | 0.623 °C |
| UniProt O43829 | -1.05 °C | 3.89 °C |
| MED14 (UniProt O60244) | 0.69 °C | 0.476 °C |

| Target | melting temperature shift (MBE1 concentration: 100 nM) | melting temperature shift (MBE1 concentration: 1 uM) |
| --- | --- | --- |
| DENR (UniProt O43583) | -2.73 °C | -1.92 °C |
| DNAJC6 (UniProt O75061) | 0.0427 °C | 0.128 °C |
| DFNA5 (UniProt O60443) | -0.671 °C | 0.74 °C |
| LRP6 (UniProt O75581) | -0.463 °C | -0.0939 °C |
| IGSF3 (UniProt O75054) | -1.94 °C | 0.724 °C |
| COQ9 (UniProt O75208) | -2.49 °C | 0.397 °C |
| UniProt O43502 | -0.64 °C | -0.0183 °C |
| PRC1 (UniProt O43663) | -0.314 °C | -0.743 °C |
| IDH3B (UniProt O43837) | -0.436 °C | 0.52 °C |
| GSTZ1 (UniProt O43708) | -0.0733 °C | 0.397 °C |
| UniProt O75487 | 0.055 °C | 6 °C |
| SLC25A12 (UniProt O75746) | -0.644 °C | -1.84 °C |
| PRKRA (UniProt O75569) | -0.957 °C | 1.01 °C |
| UniProt O43529 | -1.88 °C | 4.51 °C |
| PPIH (UniProt O43447) | 0.171 °C | 0.256 °C |
| ASNA1 (UniProt O43681) | -0.751 °C | 1.05 °C |
| KPNA6 (UniProt O60684) | -0.842 °C | -1.11 °C |
| MED6 (UniProt O75586) | -1.01 °C | 0.281 °C |
| MARCH6 (UniProt O60337) | -0.443 °C | -0.0872 °C |
| PRPF3 (UniProt O43395) | -0.339 °C | -0.616 °C |

Shown field by field: part of the list above.
MED6 (UniProt O75586)
  melting temperature shift (MBE1 concentration: 100 nM): -1.01 °C; melting temperature shift (MBE1 concentration: 1 uM): 0.281 °C
MARCH6 (UniProt O60337)
  melting temperature shift (MBE1 concentration: 100 nM): -0.443 °C; melting temperature shift (MBE1 concentration: 1 uM): -0.0872 °C

From the supplement of paper PMC12595434, “Development of retinoid nuclear receptor pathway antagonists through targeting aldehyde dehydrogenase 1A3” (iScience, 2025)
